Literature values as cited in patent US8927596B2, “Antischistosomal agent” (National University Corporation Okayama University, priority 2008, dated 2015).
At least one structure is not confirmed: it was looked up by name or label, or the drawing left a doubt.

Tested on: immature schistosomes
Conditions: as reported in the literature (Non Patent Literature 1); cited from earlier work

CO[C@H]1O[C@@H]2O[C@@]3(C)CC[C@H]4[C@H](C)CC[C@@H]([C@H]1C)[C@@]24OO3 [artemether]
effect on schistosomes at the immature stage: exhibits an effect
